# PubChem BioAssay AID2417 (National Center for Advancing Translational Sciences (NCATS), 2010)
# About 4,300 (3.1%) of roughly 140,000 compounds were called active. This list was built around the results that the source calls inconclusive (neither active nor inactive); the mix of calls is not that of the screen.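 How the source made its calls: active means readout at or below -70, meaning at least 70% loss of cells showing the perinucleolar compartment, a nuclear body marking cancer cells; inconclusive means readout between -30 and a set limit; inactive means the rest.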
# Experiment: High Content Assay for Compounds that inhibit the Assembly of the Perinucleolar Compartment;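 further: plate controls were DMSO wells for no effect and camptothecin positive control wells for full effect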
# Conditions: PC3M PTB-GFP, PNC prevalence imaging, 16 h; at 10 µM; active compounds read low
# Method in brief: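 PC3M cells stably expressing PTB-GFP, 750–1000 cells/well, treated 16 h at 37 °C with compound (23 nl of library stock), in duplicate. After paraformaldehyde fixation and Hoechst stain, imaged at 20x; PNC prevalence scored by image analysis.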
row,SMILES,"activity change (PNC), negative = inhibition"
1,Cc1c(Cl)cccc1NC(=S)NCCC(C)C,inconclusive: -73.7%
2,CC1(C)CC(=O)C(/C=N/n2c(C(F)(F)F)nc3ccccc3c2=O)=C(O)C1,inconclusive: -30.8%
3,O=C(O)c1ccc(COc2c(F)c(F)c(F)c(F)c2F)o1,active: -100%
4,COc1ccc(-c2nc(N)n(C(=O)c3ccccc3Cl)n2)cc1,inactive: 38.7%
5,Clc1ccccc1-c1nc(-c2ccccc2)n[nH]1,inconclusive: -39.8%
6,CSc1nnc(NC(=O)CCc2ccccc2)s1,inactive: 30%
7,Nc1nc(SCC(=O)N2N=C3/C(=C/c4ccco4)CCCC3C2c2ccco2)n[nH]1 (stereo not given),inconclusive: -47.2%
8,COc1cc(C(=O)NC(c2ccccc2)c2ccccc2)cc(Cl)c1OC,inconclusive: -38.4%
9,Cc1cc(CN2CCN(CCC#N)CC2)c(O)c(C2(C)CCCCC2)c1,inconclusive: -45.1%
10,CCOc1ccccc1C(=O)N1CCC(n2nnc3cc(C(F)(F)F)ccc32)CC1,inactive: -1.69%
11,CCOC(=O)c1cnn(-c2nc(OCC)cc(OCC)n2)c1C,inactive: -10.3%
12,COc1ccc(C(=S)N2CCCC2)cc1,inactive: 138%
13,CCOCCOc1nc2c(c(=O)n(C)c(=O)n2C)n1Cc1ccc(C)cc1,inconclusive: -34.2%
14,COc1cccc(-n2nnc3c(=O)n(Cc4ccc(Br)cc4)cnc32)c1,inconclusive: -50.8%
15,Cc1cccc(C(=O)O/N=C/c2c(N3CCOCC3)n(C)c3ccccc23)c1,inconclusive: -46.3%
16,CCN(C(=O)c1ccc2c(Cl)c3c(nc2c1)CCC3)c1cccc(C)c1,inactive: 16.2%
17,C=CCn1c(SCCN2CCOCC2)nc2c1c(=O)[nH]c(=O)n2C,inconclusive: -72.6%
18,O=C1C=C(c2cccs2)C[C@H](c2ccccc2)[C@H]1n1nnc([N+](=O)[O-])n1,inconclusive: -50.9%
19,COc1ccc(C(=O)NC(=S)NCC2CCCO2)cc1 (stereo not given),inactive: 40.4%
20,O=C1CC(c2ccccc2)Sc2nc(-c3ccccc3)c(-c3ccccc3)n21 (stereo not given),inconclusive: -35.7%
21,COc1ccc(-c2nnn(Cc3nc(N)nc(N4CCOCC4)n3)n2)cc1OC,inconclusive: -34.8%
22,O=C(NCc1ccccc1)c1ccccc1OCC(=O)N1CCCCC1,inactive: 13.4%
23,COc1ccc(-c2nnn(CC(=O)N3CCN(c4ccccc4OC)CC3)n2)cc1,inconclusive: -45.4%
24,Cc1cc2c(cc(C(=O)NCCCN3CCOCC3)n2Cc2ccc(Cl)cc2)o1,inconclusive: -51.3%
25,COc1cc(Nc2ccc(C(=O)O)cc2[N+](=O)[O-])cc(OC)c1,inactive: -10.6%

# Reformatted bar-delimited: part of the list above
row | SMILES | activity change (PNC), negative = inhibition
13 | CCOCCOc1nc2c(c(=O)n(C)c(=O)n2C)n1Cc1ccc(C)cc1 | inconclusive: -34.2%
14 | COc1cccc(-n2nnc3c(=O)n(Cc4ccc(Br)cc4)cnc32)c1 | inconclusive: -50.8%
